According to paper PMC5601995:
These are yes or no findings as the source states them, for the method shown. Binding seen in cells or lysates may run through a third protein. Binding calls can cover weak binding; strength is not graded here. Tags and fused reporters may be left off the sequences shown.

Biological target: adam13 (endogenous adam13 protein of Xenopus laevis embryos) (Xenopus laevis (endogenous in embryos))
Assay: co-IP; Xenopus laevis embryos injected at the one-cell stage with mRNA, alone or with the adam13 morpholino MO13; extracted in 1XMBS with 1% Triton-X100, protease phosphatase inhibitors and 5 mM EDTA; adam13 precipitated with goat polyclonal g821 on protein A/G-agarose; blotted for Flag (M2) or myc (9E10)

B1: arid3a-flag (protein, UniProt Q6GQD7 1-539)
chain: MKLQAVMETLQRQQRARLQQELEARQLQQDSSEGRTPPSAGYPGNGSDEAEPEALKIQRAQAAALAAMRAAAAGLSQQPSPAASEEEDGESMASDEEDEKERDGESERYQDMASEEEDLKGKWDEDDFEDEGEDEYEDMEEGIGVNEAGRVGKGSTLPPKHSSQQAFPSQRSQGAERAGLPLSGHPQLQDHGDWTYEEQFKQLYELDGDPKRKEFLDDLFSFMQKRGTPVNRIPIMAKQVLDLYMLYVLVTEKGGLVEVINKKLWREITKGLNLPTSITSAAFTLRTQYMKYLYPYECEKRGLSNPNELQAAIDSNRREGRRQSFGGTLFTYSPSGAPSMLSSPKLQVSGLSLGGAALNGSTLSSMQKIKKEEDSPISLAMPPRIPVTLAGHSMVAAQVAAQAAALEQLREKLESGEPPEKKMALGSEEQQRIIQRTIQHNLLAMTAQLPMNIRINSQAEGRQDSAVNLTTNGTNSISMSVELNGIVYTGVLFAQPPTSASGTSKGSSNRTGSIGGGSSNSQAAPPSTPSAPNSNNPSP
  binding: binds
